Measurements from patent US20130331326A1, “METHOD OF INDUCING HEMATOPOIETIC RECONSTRUCTION” (DUKE UNIVERSITY, priority 2011, published 2013).
“Also recorded” adds a separate entry of the source. At least one compound was matched to its structure with a doubt left.

Assays:
Type in all cases: cell-based, mouse
BM KSL cells [1] = test: Culture of 300 cGy-irradiated BM KSL cells with BM ECs or TSF cytokines; CFC and CFU-S12 recovery; settings: Ly294002 added to TSF+EGF, 72 hours
Description: BM cells were collected into PBS (Cellgro, Manassas, Va.) with 10% fetal bovine serum (Hyclone, Logan, Utah) and 1% penicillin/streptomycin (GIBCO, Grand Island, N.Y.). Viable BM cells were quantified using Trypan Blue Stain (Lonza, Basel, Switzerland) to exclude apoptotic and dead cells. Cells were then incubated with anti-c-kit, anti-Sca-1, anti-lineage cocktail, anti-CD41, anti-CD48, and anti-CD150 antibodies (Biolegend and eBiosciences, San Diego, Calif.; BD, San Jose, Calif.) to measure ckit^+sca-1^+lin^− (KSL) progenitor cells or CD150′CD41^−CD48^−KSL (SLAM/KSL) as previously described (Kiel et al, Cell 121:1109-1121 (2005)). Colony forming cells (CFCs) and CFU-S12 assays were also performed to measure functional hematopoietic stem/progenitor cell content. For CFCs, either whole BM or cultured lineage−cells, or KSL cells were plated onto methylcellulose (StemCell Technologies, Vancouver, BC, Canada), and colonies were scored on day 14. 1×10^5 BM or 2×10^5 cells were collected from donor mice and injected via tail vein into recipient C57B16 mice that had been given 950 cGy TBI. At day +12 post-injection, spleens from recipient mice were harvested and stained with Bouin's fixative solution (Ricca Chemical Company, Arlington, Tex.), and colonies were counted as previously described (Till and MeRadiat. Res. 14:213-222 (1961)). […]

BM KSL cells [2] = test: Cell cycle analysis (Ki67/7-AAD) of irradiated BM KSL cells; settings: EGF+Ly294002 vs EGF alone
Description: (§1) Cell apoptosis and necrosis were analyzed by flow cytometry according to manufacturer's protocols with Annexin V-FITC and 7-AAD staining (BD, San Jose, Calif.). […] Cells were fixed and permeabilized with Fix Buffer I and Perm Buffer III (BD), and then stained with mouse anti-phospho-AKT-S473 PE (BD) or isotype control. Cell cycle analysis was performed by flow cytometric analysis modified from previous reports (Jordan et al, Exp. Hematol. 24:1347-1355 (1996), Chute et al, Hum. Gene Ther. 11:2515-2528 (2000), Sungartz et al, Blood 119:1308-1309 (2012)). Briefly, cells were fixed and permeabilized with 0.25% Saponin (Calbiochem, La Jolla, Calif.), 2.5% paraformaldehyde, 2% FBS in 1×PBS, and then labeled with Ki67-FITC and 7-AAD (BD). BM lin^− cells from VavCre;EGFR^+/+ or VavCre;EGER^fl/fl were cultured with TSF or TSF+10 μM erlotinib, or TSF following 300 cGy for 72 hours, and then collected for total cell counts and CFCs analysis.

AKT-S473 = test: Phosphorylation of AKT-S473 in irradiated BM KSL cells; settings: 20 uM Ly294002 added to EGF-treated irradiated BM KSL cells
Description: as §1

SMILES: O=c1cc(N2CCOCC2)oc2c(-c3ccccc3)cccc12 [Ly294002, reference compound]
- recovery of BM progenitor cells (CFCs) in response to EGF (BM KSL cells [1]): prevented the recovery of BM progenitor cells in response to EGF
- recovery of BM progenitor cells (CFCs) in response to EGF (BM KSL cells [1]; listed as Ly29): blocked BM CFC regeneration in response to EGF
- entry into G2/S/M phase and percentage of G0 cells (BM KSL cells [2]): significantly decreased entry into G2/S/M phase and increased percentage of G0 cells
- entry into G2/S/M phase and percentage of G0 cells (BM KSL cells [2]; listed as Ly 29): significantly inhibited the entry of HSCs into cell cycle
- EGF-mediated Akt phosphorylation (% phospho-AKT) (AKT-S473): significantly decreased; also recorded: blocked EGF-mediated Akt phosphorylation
